Results: the supplement of paper PMC12823440, “Inhibitors supercharge kinase turnover through native proteolytic circuits” (Nature, 2025)
This is one part of the list. Hit calls seldom repeat between salt and free forms of one compound.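 Kinases were expressed as nanoluciferase fusions in K562 cells and luminescence was read every 4 h between 2 and 18 h as percent of control, DMSO set to 100% and a positive control to 0%. A time point counts as decreased when the signal drops significantly (2 sigma). The hit call is the authors' own, does not follow from the count of time points alone, and its rule is not shown.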

By UniProt entry, the sequences of proteins in these tests, tags left out. Where a name states a change or a piece, a line headed by the entry shows the natural chain unless it says otherwise.
UniProt P50750, whole entry: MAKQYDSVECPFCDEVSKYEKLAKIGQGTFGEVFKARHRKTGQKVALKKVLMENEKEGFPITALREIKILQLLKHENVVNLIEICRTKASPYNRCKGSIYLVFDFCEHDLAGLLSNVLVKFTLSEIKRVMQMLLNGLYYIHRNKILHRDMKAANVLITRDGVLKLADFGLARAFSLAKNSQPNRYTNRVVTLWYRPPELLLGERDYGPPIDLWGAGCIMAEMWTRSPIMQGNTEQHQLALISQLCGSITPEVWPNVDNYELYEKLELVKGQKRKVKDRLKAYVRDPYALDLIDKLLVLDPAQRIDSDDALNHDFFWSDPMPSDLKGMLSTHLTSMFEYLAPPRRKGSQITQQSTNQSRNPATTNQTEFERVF
UniProt O96017, whole entry: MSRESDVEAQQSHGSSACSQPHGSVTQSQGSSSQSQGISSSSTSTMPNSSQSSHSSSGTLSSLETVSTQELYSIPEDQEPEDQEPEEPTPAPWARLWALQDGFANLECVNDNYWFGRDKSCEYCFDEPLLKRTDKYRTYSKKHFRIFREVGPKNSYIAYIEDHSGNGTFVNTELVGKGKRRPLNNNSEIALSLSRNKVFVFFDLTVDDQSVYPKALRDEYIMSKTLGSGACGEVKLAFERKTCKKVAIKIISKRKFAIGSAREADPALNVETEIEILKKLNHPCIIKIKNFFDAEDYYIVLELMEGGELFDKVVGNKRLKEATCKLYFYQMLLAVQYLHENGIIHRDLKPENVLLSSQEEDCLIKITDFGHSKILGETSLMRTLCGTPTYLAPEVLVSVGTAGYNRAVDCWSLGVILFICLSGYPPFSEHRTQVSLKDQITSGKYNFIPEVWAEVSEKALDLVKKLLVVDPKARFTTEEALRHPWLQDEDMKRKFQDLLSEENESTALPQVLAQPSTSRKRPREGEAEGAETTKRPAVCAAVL
UniProt P07333, whole entry: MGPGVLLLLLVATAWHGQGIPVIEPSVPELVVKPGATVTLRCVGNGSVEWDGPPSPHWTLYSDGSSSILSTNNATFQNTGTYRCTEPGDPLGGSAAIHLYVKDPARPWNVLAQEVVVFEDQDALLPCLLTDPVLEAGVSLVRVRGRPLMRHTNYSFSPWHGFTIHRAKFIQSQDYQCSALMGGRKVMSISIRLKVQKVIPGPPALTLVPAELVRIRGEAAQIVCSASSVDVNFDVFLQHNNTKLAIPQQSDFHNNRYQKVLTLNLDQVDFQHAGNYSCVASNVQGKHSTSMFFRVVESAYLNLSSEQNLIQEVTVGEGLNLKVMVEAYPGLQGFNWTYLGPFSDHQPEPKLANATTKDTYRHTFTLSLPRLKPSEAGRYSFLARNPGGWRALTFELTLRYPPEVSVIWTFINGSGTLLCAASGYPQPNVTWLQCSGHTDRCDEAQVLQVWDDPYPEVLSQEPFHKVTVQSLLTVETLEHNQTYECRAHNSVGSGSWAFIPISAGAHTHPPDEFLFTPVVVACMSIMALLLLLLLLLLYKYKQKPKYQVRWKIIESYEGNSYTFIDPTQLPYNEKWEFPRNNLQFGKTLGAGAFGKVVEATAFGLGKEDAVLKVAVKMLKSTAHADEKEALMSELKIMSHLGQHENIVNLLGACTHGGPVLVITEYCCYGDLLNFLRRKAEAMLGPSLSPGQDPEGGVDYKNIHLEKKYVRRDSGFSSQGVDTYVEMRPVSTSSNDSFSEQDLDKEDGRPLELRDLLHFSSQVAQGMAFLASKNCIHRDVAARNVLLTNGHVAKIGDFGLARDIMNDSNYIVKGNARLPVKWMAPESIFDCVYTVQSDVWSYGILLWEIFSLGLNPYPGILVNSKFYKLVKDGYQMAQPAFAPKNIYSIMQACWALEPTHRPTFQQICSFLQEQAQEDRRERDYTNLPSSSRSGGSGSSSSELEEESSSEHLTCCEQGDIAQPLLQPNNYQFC
UniProt Q08345: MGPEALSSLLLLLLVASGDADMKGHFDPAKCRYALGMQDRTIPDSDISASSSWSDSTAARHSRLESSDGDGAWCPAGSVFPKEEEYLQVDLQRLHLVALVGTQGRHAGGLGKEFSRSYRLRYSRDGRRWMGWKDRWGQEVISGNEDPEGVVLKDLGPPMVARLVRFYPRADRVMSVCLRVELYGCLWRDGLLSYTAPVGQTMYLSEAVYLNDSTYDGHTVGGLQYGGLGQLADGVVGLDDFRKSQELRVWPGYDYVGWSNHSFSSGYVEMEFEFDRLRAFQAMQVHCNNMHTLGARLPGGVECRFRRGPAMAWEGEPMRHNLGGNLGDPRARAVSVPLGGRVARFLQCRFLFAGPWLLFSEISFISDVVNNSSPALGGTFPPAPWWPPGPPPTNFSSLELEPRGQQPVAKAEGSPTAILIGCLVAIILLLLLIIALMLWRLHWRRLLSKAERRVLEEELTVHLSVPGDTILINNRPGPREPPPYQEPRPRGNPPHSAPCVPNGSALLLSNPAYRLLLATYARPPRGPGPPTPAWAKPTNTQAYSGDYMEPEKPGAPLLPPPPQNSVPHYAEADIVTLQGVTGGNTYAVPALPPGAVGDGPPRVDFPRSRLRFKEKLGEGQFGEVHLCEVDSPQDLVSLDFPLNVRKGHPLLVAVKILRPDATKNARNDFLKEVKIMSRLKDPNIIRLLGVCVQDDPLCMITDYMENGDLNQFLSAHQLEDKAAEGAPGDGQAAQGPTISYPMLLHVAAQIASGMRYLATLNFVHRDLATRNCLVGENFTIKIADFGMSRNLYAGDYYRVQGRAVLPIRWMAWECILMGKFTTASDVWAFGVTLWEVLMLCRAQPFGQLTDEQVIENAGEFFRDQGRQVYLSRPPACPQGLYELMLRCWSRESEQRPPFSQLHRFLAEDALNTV
UniProt Q9Y463, whole entry, looked up: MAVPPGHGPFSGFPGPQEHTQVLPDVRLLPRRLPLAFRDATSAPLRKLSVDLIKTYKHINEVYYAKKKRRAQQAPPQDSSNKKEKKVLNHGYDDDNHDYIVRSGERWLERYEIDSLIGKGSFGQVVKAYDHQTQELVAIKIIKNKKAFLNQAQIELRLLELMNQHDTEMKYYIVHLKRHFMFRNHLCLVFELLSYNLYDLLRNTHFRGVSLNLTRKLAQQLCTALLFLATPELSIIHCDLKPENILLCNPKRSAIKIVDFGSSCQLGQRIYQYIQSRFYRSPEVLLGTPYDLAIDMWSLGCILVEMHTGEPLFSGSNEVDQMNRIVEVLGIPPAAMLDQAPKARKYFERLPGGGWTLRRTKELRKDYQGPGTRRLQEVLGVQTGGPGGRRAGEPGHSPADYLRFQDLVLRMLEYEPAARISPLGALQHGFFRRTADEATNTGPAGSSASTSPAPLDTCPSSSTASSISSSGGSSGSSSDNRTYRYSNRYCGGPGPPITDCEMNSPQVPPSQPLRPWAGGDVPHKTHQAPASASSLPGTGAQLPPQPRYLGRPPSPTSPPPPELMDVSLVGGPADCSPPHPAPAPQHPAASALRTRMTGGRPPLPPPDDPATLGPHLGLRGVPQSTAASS
UniProt Q92630: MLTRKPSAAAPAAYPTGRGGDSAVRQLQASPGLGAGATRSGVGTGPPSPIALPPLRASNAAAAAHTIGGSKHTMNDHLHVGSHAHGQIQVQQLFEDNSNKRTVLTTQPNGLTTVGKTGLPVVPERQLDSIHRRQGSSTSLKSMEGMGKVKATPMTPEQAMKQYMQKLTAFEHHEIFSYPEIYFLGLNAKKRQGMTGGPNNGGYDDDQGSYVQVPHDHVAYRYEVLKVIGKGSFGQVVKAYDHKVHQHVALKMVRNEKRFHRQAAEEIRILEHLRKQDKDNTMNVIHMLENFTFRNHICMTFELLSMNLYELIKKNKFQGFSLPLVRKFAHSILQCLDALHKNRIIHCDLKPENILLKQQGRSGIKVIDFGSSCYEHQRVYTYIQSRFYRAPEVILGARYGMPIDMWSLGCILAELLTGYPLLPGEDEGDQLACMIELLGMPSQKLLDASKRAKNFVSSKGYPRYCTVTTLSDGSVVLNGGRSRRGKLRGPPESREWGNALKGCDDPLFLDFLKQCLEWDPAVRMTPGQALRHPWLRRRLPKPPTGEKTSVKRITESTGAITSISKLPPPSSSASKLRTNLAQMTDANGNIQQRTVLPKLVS
UniProt P29317, whole entry: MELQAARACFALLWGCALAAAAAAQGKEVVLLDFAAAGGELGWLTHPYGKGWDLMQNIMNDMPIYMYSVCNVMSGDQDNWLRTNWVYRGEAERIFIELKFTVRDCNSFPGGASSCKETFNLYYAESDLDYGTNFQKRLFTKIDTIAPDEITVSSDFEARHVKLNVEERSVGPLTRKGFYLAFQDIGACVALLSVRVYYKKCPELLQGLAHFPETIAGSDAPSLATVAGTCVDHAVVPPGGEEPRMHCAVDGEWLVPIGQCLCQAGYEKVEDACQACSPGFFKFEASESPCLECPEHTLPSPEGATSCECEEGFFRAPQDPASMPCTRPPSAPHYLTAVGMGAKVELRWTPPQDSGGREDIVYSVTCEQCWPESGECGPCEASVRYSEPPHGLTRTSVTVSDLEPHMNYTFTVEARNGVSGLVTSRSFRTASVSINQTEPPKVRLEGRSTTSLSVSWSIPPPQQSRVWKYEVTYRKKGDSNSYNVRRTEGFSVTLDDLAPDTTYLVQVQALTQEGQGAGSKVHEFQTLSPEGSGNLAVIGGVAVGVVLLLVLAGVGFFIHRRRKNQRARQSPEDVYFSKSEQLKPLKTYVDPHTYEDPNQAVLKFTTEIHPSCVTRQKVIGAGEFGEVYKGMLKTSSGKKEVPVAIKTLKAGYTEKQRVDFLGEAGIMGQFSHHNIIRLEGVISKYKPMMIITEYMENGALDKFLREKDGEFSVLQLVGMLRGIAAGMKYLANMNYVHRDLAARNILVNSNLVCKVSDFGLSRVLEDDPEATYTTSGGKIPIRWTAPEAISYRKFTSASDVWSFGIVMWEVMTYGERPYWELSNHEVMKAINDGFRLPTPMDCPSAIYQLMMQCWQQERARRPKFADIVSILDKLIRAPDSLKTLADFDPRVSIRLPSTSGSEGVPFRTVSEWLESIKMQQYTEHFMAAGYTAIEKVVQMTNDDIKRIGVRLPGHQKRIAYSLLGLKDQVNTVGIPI
UniProt P21860, whole entry: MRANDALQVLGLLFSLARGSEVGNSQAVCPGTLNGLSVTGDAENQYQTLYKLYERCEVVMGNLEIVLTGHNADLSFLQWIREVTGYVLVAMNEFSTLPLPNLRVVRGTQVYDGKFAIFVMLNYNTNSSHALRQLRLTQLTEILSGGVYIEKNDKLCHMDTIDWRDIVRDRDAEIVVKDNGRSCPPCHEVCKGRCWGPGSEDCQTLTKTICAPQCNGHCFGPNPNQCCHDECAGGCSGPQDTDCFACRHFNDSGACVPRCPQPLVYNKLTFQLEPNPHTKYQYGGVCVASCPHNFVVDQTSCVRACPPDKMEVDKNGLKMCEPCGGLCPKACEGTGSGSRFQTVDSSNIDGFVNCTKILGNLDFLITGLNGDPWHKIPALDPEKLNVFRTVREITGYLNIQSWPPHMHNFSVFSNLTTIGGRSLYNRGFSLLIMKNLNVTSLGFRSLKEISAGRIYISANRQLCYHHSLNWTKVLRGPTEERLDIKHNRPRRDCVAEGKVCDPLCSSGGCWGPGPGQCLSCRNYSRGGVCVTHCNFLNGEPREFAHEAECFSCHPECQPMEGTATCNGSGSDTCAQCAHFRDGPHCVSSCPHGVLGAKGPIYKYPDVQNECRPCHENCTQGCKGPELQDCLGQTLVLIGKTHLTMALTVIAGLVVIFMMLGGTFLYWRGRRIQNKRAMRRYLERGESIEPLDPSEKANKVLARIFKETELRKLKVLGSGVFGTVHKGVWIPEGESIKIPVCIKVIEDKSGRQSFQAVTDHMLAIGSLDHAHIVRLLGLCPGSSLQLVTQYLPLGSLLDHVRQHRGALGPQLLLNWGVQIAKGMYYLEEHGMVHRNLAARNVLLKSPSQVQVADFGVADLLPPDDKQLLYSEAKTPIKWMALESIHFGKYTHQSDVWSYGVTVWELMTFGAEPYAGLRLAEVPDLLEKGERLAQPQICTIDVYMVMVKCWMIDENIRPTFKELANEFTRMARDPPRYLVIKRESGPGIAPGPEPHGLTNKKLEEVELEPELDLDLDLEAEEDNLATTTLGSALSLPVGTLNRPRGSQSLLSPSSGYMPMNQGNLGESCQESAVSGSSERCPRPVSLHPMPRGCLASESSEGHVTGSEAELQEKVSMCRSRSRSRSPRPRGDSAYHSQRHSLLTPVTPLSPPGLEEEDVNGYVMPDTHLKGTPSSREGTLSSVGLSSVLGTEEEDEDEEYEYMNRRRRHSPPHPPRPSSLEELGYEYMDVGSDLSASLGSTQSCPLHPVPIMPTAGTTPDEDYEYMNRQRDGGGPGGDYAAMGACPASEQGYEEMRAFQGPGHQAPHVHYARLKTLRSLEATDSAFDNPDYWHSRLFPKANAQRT

Experiments:
Experiment in all cases: kinase-Nluc reporter destabilization hit call (1 = scored as downregulated) (binary); higher = compound decreases kinase abundance
Conditions in all cases: K562; 2-18 h
CDK7 = CDK7 (UniProt P50613)
CDK9 = CDK9 (UniProt P50750)
CHEK2 = CHEK2 (UniProt O96017)
CSF1R = CSF1R (UniProt P07333)
CSK = CSK (UniProt P41240)
CSNK1A1 = CSNK1A1 (UniProt P48729)
CSNK1D = CSNK1D (UniProt P48730)
DDR1 = DDR1 (UniProt Q08345)
DYRK1B = DYRK1B (UniProt Q9Y463)
DYRK2 = DYRK2 (UniProt Q92630)
EGFR = EGFR (UniProt P00533)
EGFR_G719S = EGFR_G719S (UniProt P00533)
EGFR_G719S_T790M = EGFR_G719S_T790M (UniProt P00533)
EGFR_L718V = EGFR_L718V (UniProt P00533)
EGFR_L858R = EGFR_L858R (UniProt P00533)
EGFR_L861Q = EGFR_L861Q (UniProt P00533)
EGFR_T790M = EGFR_T790M (UniProt P00533)
EPHA2 = EPHA2 (UniProt P29317)
ERBB3 = ERBB3 (UniProt P21860)
[1] = target: ERBB4_R711C (clone: ERBB4_mut) (UniProt Q15303)

Measured: kinase-Nluc reporter destabilization hit call

N#C/C(=C(/N)Sc1ccc(N)cc1)c1ccccc1C(F)(F)F (10 µM)
inactive: CDK7 = 0 | CDK9 = 0 | CHEK2 = 0 | CSF1R 0 | CSK 0 | CSNK1A1 = 0 | CSNK1D 0 | DDR1 = 0 | DYRK1B 0 | DYRK2 = 0 | EGFR 0 | EGFR_G719S 0 | EGFR_G719S_T790M 0 | EGFR_L718V 0 | EGFR_L858R 0 | EGFR_L861Q 0 | EGFR_T790M 0 | EPHA2 = 0 | ERBB3 = 0 | [1] 0

Cn1ncc(Cl)c1-c1cc(C(=O)N[C@H](CN)Cc2ccc(F)c(F)c2)sc1Cl (10 µM)
inactive: CDK7 = 0 | CDK9 = 0 | CHEK2 = 0 | CSF1R 0 | CSK 0 | CSNK1A1 = 0 | CSNK1D 0 | DDR1 = 0 | DYRK1B 0 | DYRK2 = 0 | EGFR 0 | EGFR_G719S 0 | EGFR_G719S_T790M 0 | EGFR_L718V 0 | EGFR_L858R 0 | EGFR_L861Q 0 | EGFR_T790M 0 | EPHA2 = 0 | ERBB3 = 0 | [1] 0

C[C@@H]1COCCN1c1cc(C2([S@](C)(=N)=O)CC2)nc(-c2cc[nH]c3nccc2-3)n1 [Ceralasertib] (2.5 µM)
inactive: CDK7 = 0 | CDK9 = 0 | CHEK2 = 0 | CSF1R 0 | CSK 0 | CSNK1A1 = 0 | CSNK1D 0 | DDR1 = 0 | DYRK1B 0 | DYRK2 = 0 | EGFR 0 | EGFR_G719S 0 | EGFR_G719S_T790M 0 | EGFR_L718V 0 | EGFR_L858R 0 | EGFR_L861Q 0 | EGFR_T790M 0 | EPHA2 = 0 | ERBB3 = 0 | [1] 0

O[C@H]1CC[C@H](Nc2ncc3nc(Nc4c(F)cc(F)cc4F)n([C@H]4CCOC4)c3n2)CC1 [Tanzisertib] (10 µM)
inactive: CDK7 = 0 | CDK9 = 0 | CHEK2 = 0 | CSF1R 0 | CSK 0 | CSNK1A1 = 0 | CSNK1D 0 | DDR1 = 0 | DYRK1B 0 | DYRK2 = 0 | EGFR 0 | EGFR_G719S 0 | EGFR_G719S_T790M 0 | EGFR_L718V 0 | EGFR_L858R 0 | EGFR_L861Q 0 | EGFR_T790M 0 | EPHA2 = 0 | ERBB3 = 0 | [1] 0

N#C/C(=C\c1ccc2oc(=O)[nH]c2c1)C(=O)c1ccc(O)c(O)c1 (10 µM)
inactive: CDK7 = 0 | CDK9 = 0 | CHEK2 = 0 | CSF1R 0 | CSK 0 | CSNK1A1 = 0 | CSNK1D 0 | DDR1 = 0 | DYRK1B 0 | DYRK2 = 0 | EGFR 0 | EGFR_G719S 0 | EGFR_G719S_T790M 0 | EGFR_L718V 0 | EGFR_L858R 0 | EGFR_L861Q 0 | EGFR_T790M 0 | EPHA2 = 0 | ERBB3 = 0 | [1] 0

Cn1cc(-c2ccc3nnc(C(F)(F)c4ccc5ncccc5c4)n3n2)cn1 (10 µM)
inactive: CDK7 = 0 | CDK9 = 0 | CHEK2 = 0 | CSF1R 0 | CSK 0 | CSNK1A1 = 0 | CSNK1D 0 | DDR1 = 0 | DYRK1B 0 | DYRK2 = 0 | EGFR 0 | EGFR_G719S 0 | EGFR_G719S_T790M 0 | EGFR_L718V 0 | EGFR_L858R 0 | EGFR_L861Q 0 | EGFR_T790M 0 | EPHA2 = 0 | ERBB3 = 0 | [1] 0

O=C(O)c1ccc(-c2c[nH]c3ncc(-c4ccccc4)cc23)cc1C1CCCC1 (2.5 µM)
inactive: CDK7 = 0 | CDK9 = 0 | CHEK2 = 0 | CSF1R 0 | CSK 0 | CSNK1A1 = 0 | CSNK1D 0 | DDR1 = 0 | DYRK1B 0 | DYRK2 = 0 | EGFR 0 | EGFR_G719S 0 | EGFR_G719S_T790M 0 | EGFR_L718V 0 | EGFR_L858R 0 | EGFR_L861Q 0 | EGFR_T790M 0 | EPHA2 = 0 | ERBB3 = 0 | [1] 0

CC(C)c1ccc(CC(=O)N2CCN(c3ccc(C#N)nn3)CC2)cc1 (10 µM)
inactive: CDK7 = 0 | CDK9 = 0 | CHEK2 = 0 | CSF1R 0 | CSK 0 | CSNK1A1 = 0 | CSNK1D 0 | DDR1 = 0 | DYRK1B 0 | DYRK2 = 0 | EGFR 0 | EGFR_G719S 0 | EGFR_G719S_T790M 0 | EGFR_L718V 0 | EGFR_L858R 0 | EGFR_L861Q 0 | EGFR_T790M 0 | EPHA2 = 0 | ERBB3 = 0 | [1] 0

NC(=O)c1ccc(-c2cnn3ccc(NCc4cccnc4)nc23)cc1 (2.5 µM)
inactive: CDK7 = 0 | CDK9 = 0 | CHEK2 = 0 | CSF1R 0 | CSK 0 | CSNK1A1 = 0 | CSNK1D 0 | DDR1 = 0 | DYRK1B 0 | DYRK2 = 0 | EGFR 0 | EGFR_G719S 0 | EGFR_G719S_T790M 0 | EGFR_L718V 0 | EGFR_L858R 0 | EGFR_L861Q 0 | EGFR_T790M 0 | EPHA2 = 0 | ERBB3 = 0 | [1] 0

Nc1cc(C(F)(F)F)c(-c2nc(N3CCOCC3)nc(N3CCOCC3)n2)cn1 [Bimiralisib] (10 µM)
inactive: CDK7 = 0 | CDK9 = 0 | CHEK2 = 0 | CSF1R 0 | CSK 0 | CSNK1A1 = 0 | CSNK1D 0 | DDR1 = 0 | DYRK1B 0 | DYRK2 = 0 | EGFR 0 | EGFR_G719S 0 | EGFR_G719S_T790M 0 | EGFR_L718V 0 | EGFR_L858R 0 | EGFR_L861Q 0 | EGFR_T790M 0 | EPHA2 = 0 | ERBB3 = 0 | [1] 0

COc1c(C)c(C(=O)c2ccc(N)c(C(=O)O)c2)n2ccccc12 (10 µM)
inactive: CDK7 = 0 | CDK9 = 0 | CHEK2 = 0 | CSF1R 0 | CSK 0 | CSNK1A1 = 0 | CSNK1D 0 | DDR1 = 0 | DYRK1B 0 | DYRK2 = 0 | EGFR 0 | EGFR_G719S 0 | EGFR_G719S_T790M 0 | EGFR_L718V 0 | EGFR_L858R 0 | EGFR_L861Q 0 | EGFR_T790M 0 | EPHA2 = 0 | ERBB3 = 0 | [1] 0

O=C(CO)N1CCC(c2n[nH]c(-c3ccc(Cl)cc3)c2-c2ccncn2)CC1 (10 µM)
inactive: CDK7 = 0 | CDK9 = 0 | CHEK2 = 0 | CSF1R 0 | CSK 0 | CSNK1A1 = 0 | CSNK1D 0 | DDR1 = 0 | DYRK1B 0 | DYRK2 = 0 | EGFR 0 | EGFR_G719S 0 | EGFR_G719S_T790M 0 | EGFR_L718V 0 | EGFR_L858R 0 | EGFR_L861Q 0 | EGFR_T790M 0 | EPHA2 = 0 | ERBB3 = 0 | [1] 0

OCCN(CCO)c1ccc(C(c2ccc(Cl)cc2)c2ccc(N(CCO)CCO)cc2)cc1 (10 µM)
active: CDK9 = 1
inactive: CDK7 = 0 | CHEK2 = 0 | CSF1R 0 | CSK 0 | CSNK1A1 = 0 | CSNK1D 0 | DDR1 = 0 | DYRK1B 0 | DYRK2 = 0 | EGFR 0 | EGFR_G719S 0 | EGFR_G719S_T790M 0 | EGFR_L718V 0 | EGFR_L858R 0 | EGFR_L861Q 0 | EGFR_T790M 0 | EPHA2 = 0 | ERBB3 = 0 | [1] 0

Nc1cccc(S(=O)(=O)N2CCCN(S(=O)(=O)c3ccc4c(c3)OCCO4)CC2)c1 (10 µM)
inactive: CDK7 = 0 | CDK9 = 0 | CHEK2 = 0 | CSF1R 0 | CSK 0 | CSNK1A1 = 0 | CSNK1D 0 | DDR1 = 0 | DYRK1B 0 | DYRK2 = 0 | EGFR 0 | EGFR_G719S 0 | EGFR_G719S_T790M 0 | EGFR_L718V 0 | EGFR_L858R 0 | EGFR_L861Q 0 | EGFR_T790M 0 | EPHA2 = 0 | ERBB3 = 0 | [1] 0

CC[C@H](C)[C@H](NC(=O)[C@H](CCC(=O)O)NC(=O)[C@H](CCCN=C(N)N)NC(=O)[C@H](CCCN=C(N)N)NC(=O)[C@@H](N)CCCCN)C(=O)N[C@@H](CC(C)C)C(=O)N[C@@H](CO)C(=O)N[C@@H](CCCN=C(N)N)C(=O)N[C@@H](CCCN=C(N)N)C(=O)N1CCC[C@H]1C(=O)N[C@@H](CO)C(=O)N[C@@H](Cc1ccc(O)cc1)C(=O)N[C@@H](CCCN=C(N)N)C(=O)O [CREBtide] (10 µM)
inactive: CDK7 = 0 | CDK9 = 0 | CHEK2 = 0 | CSF1R 0 | CSK 0 | CSNK1A1 = 0 | CSNK1D 0 | DDR1 = 0 | DYRK1B 0 | DYRK2 = 0 | EGFR 0 | EGFR_G719S 0 | EGFR_G719S_T790M 0 | EGFR_L718V 0 | EGFR_L858R 0 | EGFR_L861Q 0 | EGFR_T790M 0 | EPHA2 = 0 | ERBB3 = 0 | [1] 0

Some of these compounds in order of number of heavy atoms, falling.
OCCN(CCO)c1ccc(C(c2ccc(Cl)cc2)c2ccc(N(CCO)CCO)cc2)cc1 (10 µM)
active: CDK9 = 1
inactive: CDK7 = 0 | CHEK2 = 0 | CSF1R 0 | CSK 0 | CSNK1A1 = 0 | CSNK1D 0 | DDR1 = 0 | DYRK1B 0 | DYRK2 = 0 | EGFR 0 | EGFR_G719S 0 | EGFR_G719S_T790M 0 | EGFR_L718V 0 | EGFR_L858R 0 | EGFR_L861Q 0 | EGFR_T790M 0 | EPHA2 = 0 | ERBB3 = 0 | [1] 0

Nc1cccc(S(=O)(=O)N2CCCN(S(=O)(=O)c3ccc4c(c3)OCCO4)CC2)c1 (10 µM)
inactive: CDK7 = 0 | CDK9 = 0 | CHEK2 = 0 | CSF1R 0 | CSK 0 | CSNK1A1 = 0 | CSNK1D 0 | DDR1 = 0 | DYRK1B 0 | DYRK2 = 0 | EGFR 0 | EGFR_G719S 0 | EGFR_G719S_T790M 0 | EGFR_L718V 0 | EGFR_L858R 0 | EGFR_L861Q 0 | EGFR_T790M 0 | EPHA2 = 0 | ERBB3 = 0 | [1] 0

C[C@@H]1COCCN1c1cc(C2([S@](C)(=N)=O)CC2)nc(-c2cc[nH]c3nccc2-3)n1 [Ceralasertib] (2.5 µM)
inactive: CDK7 = 0 | CDK9 = 0 | CHEK2 = 0 | CSF1R 0 | CSK 0 | CSNK1A1 = 0 | CSNK1D 0 | DDR1 = 0 | DYRK1B 0 | DYRK2 = 0 | EGFR 0 | EGFR_G719S 0 | EGFR_G719S_T790M 0 | EGFR_L718V 0 | EGFR_L858R 0 | EGFR_L861Q 0 | EGFR_T790M 0 | EPHA2 = 0 | ERBB3 = 0 | [1] 0

Next compounds follow.

Cc1cc2cc(Oc3ccnc(Nc4cccc(CS(=O)(=O)NCCN(C)C)c4)n3)ccc2[nH]1 [Sulfatinib] (10 µM)
inactive: CDK7 = 0 | CDK9 = 0 | CHEK2 = 0 | CSF1R 0 | CSK 0 | CSNK1A1 = 0 | CSNK1D 0 | DDR1 = 0 | DYRK1B 0 | DYRK2 = 0 | EGFR 0 | EGFR_G719S 0 | EGFR_G719S_T790M 0 | EGFR_L718V 0 | EGFR_L858R 0 | EGFR_L861Q 0 | EGFR_T790M 0 | EPHA2 = 0 | ERBB3 = 0 | [1] 0

COc1cc(N2CCC(O)CC2)ccc1Nc1cc(Nc2ccccc2S(=O)(=O)C(C)C)c2cc[nH]c2n1 (10 µM)
inactive: CDK7 = 0 | CDK9 = 0 | CHEK2 = 0 | CSF1R 0 | CSK 0 | CSNK1A1 = 0 | CSNK1D 0 | DDR1 = 0 | DYRK1B 0 | DYRK2 = 0 | EGFR 0 | EGFR_G719S 0 | EGFR_G719S_T790M 0 | EGFR_L718V 0 | EGFR_L858R 0 | EGFR_L861Q 0 | EGFR_T790M 0 | EPHA2 = 0 | ERBB3 = 0 | [1] 0

Cc1cc(Nc2nc(N[C@@H](C)c3ncc(F)cn3)ncc2Cl)[nH]n1 (10 µM)
inactive: CDK7 = 0 | CDK9 = 0 | CHEK2 = 0 | CSF1R 0 | CSK 0 | CSNK1A1 = 0 | CSNK1D 0 | DDR1 = 0 | DYRK1B 0 | DYRK2 = 0 | EGFR 0 | EGFR_G719S 0 | EGFR_G719S_T790M 0 | EGFR_L718V 0 | EGFR_L858R 0 | EGFR_L861Q 0 | EGFR_T790M 0 | EPHA2 = 0 | ERBB3 = 0 | [1] 0
